Measured values: the supplement of paper PMC12282887
These are raw signals, not scaled to a control.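 Maximum concentrations were near the MIC for antimicrobials, 500 µM for most other compounds, and as high as 1 mM for known inducer-like compounds. Deletion strains began with a tenfold smaller inoculum, and wells with growth under 10% of the overall median counted as non-growing.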

Tested on: Escherichia coli BW25113
Experiment: growth (OD600 area under curve, 8 h) (OD600 x h); higher = more growth
Method: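 E. coli BW25113 reporter strains (wild type, ΔmarA, ΔsoxS, Δrob, each carrying one of 8 lux reporter plasmids) were grown in 40 µl LB in 384-well plates at 37°C, 800 rpm, with each compound at 4 two-fold concentrations, in biological duplicates. Growth is the baseline-corrected OD600 area under the curve over 8 h (0-8 h WT, 1-9 h deletion strains).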

O=C(O)CN(CCN(CC(=O)O)CC(=O)O)CC(=O)O [EDTA]
growth
Conditions	reporter plasmid: EVC	reporter plasmid: acrABp	reporter plasmid: marRABp	reporter plasmid: micFp	reporter plasmid: ompFp	reporter plasmid: robp	reporter plasmid: soxSp	reporter plasmid: tolCp
18.3 µg/ml, genetic background: wild type	2.98	2.63	3.34	3.23	3.03	3.23	3.048	3.01
18.3 µg/ml, genetic background: ΔmarA	3.04	4.38	3.65	3.27	3.51	3.82	2.9	3
18.3 µg/ml, genetic background: Δrob	2.66	3.318	3.4407	3.15	2.56	2.82	3.08	3.11
18.3 µg/ml, genetic background: ΔsoxS	2.91	3.33	3.27	2.43	3.26	3.12	3.11	2.97
36.5 µg/ml, genetic background: wild type	2.86	2.64	3.07	3.01	2.87	2.973	2.88	2.83
36.5 µg/ml, genetic background: ΔmarA	2.74	3.93	3.38	3.13	3.36	3.57	2.77	2.77
36.5 µg/ml, genetic background: Δrob	2.54	3.54	3.28	2.95	2.37	2.7	2.89	3.05
36.5 µg/ml, genetic background: ΔsoxS	2.81	3.05	3.14	2.36	2.81	3.11	2.9	2.93
73.1 µg/ml, genetic background: wild type	2.64	1.91	2.82	2.72	2.74	2.72	2.55	2.6
73.1 µg/ml, genetic background: ΔmarA	2.69	3.52	3.52	3.01	3.28	3.45	2.54	2.49
73.1 µg/ml, genetic background: Δrob	2.47	2.97	3.17	2.57	2.3	2.48	2.657	2.96
73.1 µg/ml, genetic background: ΔsoxS	2.98	3	3.14	2.31	2.67	2.84	2.83	2.45
146.1 µg/ml, genetic background: wild type	1.74	1.366	1.69	1.3	1.196	1.74	1.34	1.98
146.1 µg/ml, genetic background: ΔmarA	1.64	1.65	0.844	1.68	0.687	2.37	0.682	1.12
146.1 µg/ml, genetic background: Δrob	1.6	0.872	0.68	1.06	0.724	0.107	0.569	1.73
146.1 µg/ml, genetic background: ΔsoxS	0.665	-0.0435	0.0054	-0.0412	-0.0215	-0.076	-0.033	0.702

CC[C@H]1OC(=O)[C@H](C)[C@@H](O[C@H]2C[C@@](C)(OC)[C@@H](O)[C@H](C)O2)[C@H](C)[C@@H](O[C@@H]2O[C@H](C)C[C@H](N(C)C)[C@H]2O)[C@](C)(O)C[C@@H](C)C(=O)[C@H](C)[C@@H](O)[C@]1(C)O [Erythromycin]
growth
Conditions	reporter plasmid: EVC	reporter plasmid: acrABp	reporter plasmid: marRABp	reporter plasmid: micFp	reporter plasmid: ompFp	reporter plasmid: robp	reporter plasmid: soxSp	reporter plasmid: tolCp
1.8 µg/ml, genetic background: wild type	2.89	2.82	3.01	3.04	3.11	3.07	3.07	2.91
1.8 µg/ml, genetic background: ΔmarA	3.2	4.29	3.67	2.94	3.2	3.694	3.06	2.88
1.8 µg/ml, genetic background: Δrob	2.44	3.14	3.29	2.84	2.51	2.63	2.91	2.88
1.8 µg/ml, genetic background: ΔsoxS	2.85	2.86	2.88	2.51	3.29	3.03	2.89	2.79
3.7 µg/ml, genetic background: wild type	2.63	2.5	2.89	2.92	2.9	2.73	3.05	2.71
3.7 µg/ml, genetic background: ΔmarA	2.8	3.8	3.21	2.83	2.95	3.364	2.67	2.461
3.7 µg/ml, genetic background: Δrob	2.31	2.596	2.91	2.7	2.09	2.23	2.85	2.72
3.7 µg/ml, genetic background: ΔsoxS	2.55	2.53	2.53	2.08	2.55	2.61	2.34	2.54
7.3 µg/ml, genetic background: wild type	2.39	2.09	2.4194	2.34	2.46	2.53	2.81	2.3
7.3 µg/ml, genetic background: ΔmarA	2.15	3.05	2.49	2.15	2.51	2.87	2.62	1.79
7.3 µg/ml, genetic background: Δrob	1.65	1.94	2.39	2.03	1.55	1.54	2.29	2.05
7.3 µg/ml, genetic background: ΔsoxS	2.21	1.99	2.15	1.52	2.05	2.24	1.83	2.13
14.7 µg/ml, genetic background: wild type	1.2	0.574	1.02	1.209	0.7285	0.765	1.73	1.37
14.7 µg/ml, genetic background: ΔmarA	0.68	0.261	0.37	0.656	0.0593	0.811	1.2	0.779
14.7 µg/ml, genetic background: Δrob	0.597	0.22	0.411	0.752	0.0187	0.0373	1.2	1.15
14.7 µg/ml, genetic background: ΔsoxS	0.972	0.102	0.197	0.333	0.177	0.00513	0.452	1.04

CC[n+]1c(-c2ccccc2)c2cc(N)ccc2c2ccc(N)cc21 [Ethidiumbromide]
growth
Conditions	reporter plasmid: EVC	reporter plasmid: acrABp	reporter plasmid: marRABp	reporter plasmid: micFp	reporter plasmid: ompFp	reporter plasmid: robp	reporter plasmid: soxSp	reporter plasmid: tolCp
24.6 µg/ml, genetic background: wild type	3.15	2.62	3.26	3.03	2.64	3.13	3.09	3.13
24.6 µg/ml, genetic background: ΔmarA	3.37	4.02	3.61	3.06	3.34	3.69	3.1	2.81
24.6 µg/ml, genetic background: Δrob	2.99	2.94	3.05	2.9	2.4	2.61	3.05	3.01
24.6 µg/ml, genetic background: ΔsoxS	3.25	3.23	3.15	2.86	3.16	2.93	3.16	3.03
49.3 µg/ml, genetic background: wild type	3.01	2.18	2.58	2.817	2.24	2.71	2.93	2.75
49.3 µg/ml, genetic background: ΔmarA	2.8	3.34	3.006	2.85	3.02	3.37	2.8	2.475
49.3 µg/ml, genetic background: Δrob	2.72	2.29	2.53	2.79	1.92	2.05	2.86	2.71
49.3 µg/ml, genetic background: ΔsoxS	3.05	2.76	2.61	2.57	2.58	2.39	2.75	2.94
98.6 µg/ml, genetic background: wild type	2.5	1.88	2.13	2.29	1.89	2.36	2.67	2.22
98.6 µg/ml, genetic background: ΔmarA	1.99	2.17	2.34	2.22	2.06	2.58	2.5	1.79
98.6 µg/ml, genetic background: Δrob	2.33	1.85	1.69	1.96	1.2	1.47	2.44	1.84
98.6 µg/ml, genetic background: ΔsoxS	2.46	2.23	2.47	1.87	1.75	1.71	2.18	2.57
197.1 µg/ml, genetic background: wild type	0.531	-0.307	0.162	0.237	0.0897	0.139	0.8144	0.715
197.1 µg/ml, genetic background: ΔmarA	0.151	-0.104	-0.047	0.112	-0.12	-0.0125	0.333	-0.000135
197.1 µg/ml, genetic background: Δrob	-0.0388	-0.0215	-0.0264	-0.0746	-0.0831	-0.0599	0.277	0.0548
197.1 µg/ml, genetic background: ΔsoxS	0.348	-0.0331	0.00222	-0.0598	0.0216	-0.0689	-0.0182	0.374
